Data from US20240252689A1, “POLY-ADP RIBOSE (PAR) TRACKER OPTIMIZED SPLIT-PROTEIN REASSEMBLY PAR DETECTION REAGENTS” (THE BOARD OF REGENTS OF THE UNIVERSITY OF TEXAS SYSTEM, priority 2021, published 2024).

Test system: PARylation
Test: Dual luciferase assay with PAR-T NanoLuc in MDA-MB-231-Luc cells, cell number titration
Format: cell-based, human

B1: PAR-T NanoLuc: WWE-based split Nano Luciferase fusion protein pair, C-terminal fragment fused to LSSmOrange (SEQ ID NO: 15 and 16) (protein)
chain 1: MDYKDDDDKLEATGNGEYAWYYEGRNGWWQYDERTSRELEDAFSKGKKNTEMLIAGFLYVADLENMVQYRRNEHGRRRKIKRDIIDIPKKGVAGLRLEFSTGHGTGSTGSGSSGTASSESTGSSVFTLEDFVGDWEQTAAYNLDQVLEQGGVSSLLQNLAVSVTPIQRIVRSGENALKIDIHVIIPYEGLSADQMAQIEEVFKVVYPVDDHHFKVILPYGTLVIDGVTPNMLNYFGRPYEGIAVFDGKKITVTGTLWNGNKIIDERLITPDGSMLFRVTINS
chain 2: MDYKDDDDKLEATGNGEYAWYYEGRNGWWQYDERTSRELEDAFSKGKKNTEMLIAGFLYVADLENMVQYRRNEHGRRRKIKRDIIDIPKKGVAGLRLEFSTGHGTGSTGSGSSGTASSESTGSSVTGYRLFEEILDISGGMVSKGEENNMAIIKEFMRFKVRMEGSVNGHEFEIEGEGEGRPYEGFQTVKLKVTKGGPLPFAWDILSPQFTYGSKAYVKHPADIPDYLKLSFPEGFKWERVMNFEDGGVVTVTQDSSLQDGEFIYKVKLRGTNFPSDGPVMQKKTMGMEASSERMYPEDGALKGEDKLRLKLKDGGHYTSEVKTTYKAKKPVQLPGAYIVDIKLDITSHNEDYTIVEQYERAEGRHSTGGMDELYK
Q: B1 was tested. Which dynamic range (1000 cells) did it give?
A: The dynamic range was “approximately two-fold”.

Q: What about the “number of cells in which PARylation can be detected” value (MDA-MB-231-Luc cells) of the same molecule?
A: Its value is 1000 cells.
